Literature values in US5683715A, “Taxane-containing phosphatidylcholine liposomes” (The Liposome Company, Inc., priority 1995, dated 1997).

## CC(=O)O[C@H]1C(=O)[C@@]2(C)[C@H]([C@H](OC(=O)c3ccccc3)[C@]3(O)C[C@H](OC(=O)[C@H](O)[C@@H](NC(=O)c4ccccc4)c4ccccc4)C(C)=C1C3(C)C)[C@]1(OC(C)=O)CO[C@@H]1C[C@@H]2O [Paclitaxel]
  Solubility in water and aqueous solvents: highly insoluble
